# Experimental data: the supplement of paper PMC8728848
# The list shows a part of the results.
# B1: his-Lectin-24A (Drosophila melanogaster) (protein)
# chain: MFRLSVLVLNLLLVSHEFSAGTAKIEIQPLPALCNGYCFPTLKPVMEYVAIHQDKWNTCTEILANEARKDQIQLNIQLDALKADVSNIKASQLSKDEKLDRMEREQFAMHESLETINRYLTVKLDRTKLQLEAIKNTMDYMKAQMDGYFSAINGVQCLQPGFEKIGDRYFYIEEDVELNWLDAQAKCRRMGGHLASIKTKQEFDAIVEKLDDSKSYFLGVNENTKTGDFVSAASGKSCLYHEWGPGEPHHNNDQERCVSILRKLMHVGNCTYEKRFICQYGI
# How the values were obtained:
# Experiment in all cases: glycan array binding signal (z-score within array); higher = stronger binding
# Conditions in all cases: glycan notation: IUPAC condensed, linker removed
# [1] = target: Gal(b1-4)GlcNAc(b1-3)Gal(b1-4)GlcNAc(b1-2)[Gal(b1-4)GlcNAc(b1-3)Gal(b1-4)GlcNAc(b1-6)]Man(a1-6)[Gal(b1-4)GlcNAc(b1-3)Gal(b1-4)GlcNAc(b1-2)Man(a1-3)]Man(b1-4)GlcNAc(b1-4)GlcNAc
# Outline: (§1)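 The binding signal is a Z-score computed within each array. Data were drawn from 3228 arrays in the Consortium for Functional Glycomics database, restricted to those with a known protein sequence. Scores were averaged over arrays of the same protein sequence at different concentrations or buffers, and over linkers, and negative values can be taken as non-binding.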
# [2] = target: Gal(b1-4)GlcNAc(b1-3)Gal(b1-4)GlcNAc(b1-2)[Gal(b1-4)GlcNAc(b1-3)Gal(b1-4)GlcNAc(b1-6)]Man(a1-6)[Gal(b1-4)GlcNAc(b1-3)Gal(b1-4)GlcNAc(b1-2)Man(a1-3)]Man(b1-4)GlcNAc(b1-4)[Fuc(a1-6)]GlcNAc
# Outline: as §1
# [3] = target: Gal(b1-4)GlcNAc(b1-3)Gal(b1-4)GlcNAc(b1-3)Gal(b1-4)GlcNAc
# Outline: as §1
# [4] = target: Gal(b1-4)GlcNAc(b1-3)Gal(b1-4)GlcNAc(b1-3)Gal(b1-4)GlcNAc(b1-2)Man(a1-3)[Gal(b1-4)GlcNAc(b1-3)Gal(b1-4)GlcNAc(b1-3)Gal(b1-4)GlcNAc(b1-2)Man(a1-6)]Man(b1-4)GlcNAc(b1-4)GlcNAc
# Outline: as §1
# [5] = target: Gal(b1-4)GlcNAc(b1-3)Gal(b1-4)GlcNAc(b1-3)Gal(b1-4)GlcNAc(b1-2)Man(a1-3)[Gal(b1-4)GlcNAc(b1-3)Gal(b1-4)GlcNAc(b1-3)Gal(b1-4)GlcNAc(b1-2)Man(a1-6)]Man(b1-4)GlcNAc(b1-4)[Fuc(a1-6)]GlcNAc
# Outline: as §1
# [6] = target: Gal(b1-4)GlcNAc(b1-3)Gal(b1-4)GlcNAc(b1-3)Gal(b1-4)GlcNAc(b1-2)[Gal(b1-4)GlcNAc(b1-3)Gal(b1-4)GlcNAc(b1-3)Gal(b1-4)GlcNAc(b1-6)]Man(a1-6)[Gal(b1-4)GlcNAc(b1-3)Gal(b1-4)GlcNAc(b1-3)Gal(b1-4)GlcNAc(b1-2)Man(a1-3)]Man(b1-4)GlcNAc(b1-4)[Fuc(a1-6)]GlcNAc
# Outline: as §1
# [7] = target: Gal(b1-4)GlcNAc(b1-3)Gal(b1-4)GlcNAc(b1-3)Gal(b1-4)GlcNAc(b1-3)Gal(b1-4)GlcNAc(b1-2)Man(a1-3)[Gal(b1-4)GlcNAc(b1-3)Gal(b1-4)GlcNAc(b1-3)Gal(b1-4)GlcNAc(b1-3)Gal(b1-4)GlcNAc(b1-2)Man(a1-6)]Man(b1-4)GlcNAc(b1-4)GlcNAc
# Outline: as §1
# [8] = target: Gal(b1-4)GlcNAc(b1-3)Gal(b1-4)GlcNAc(b1-3)Gal(b1-4)GlcNAc(b1-3)Gal(b1-4)GlcNAc(b1-2)Man(a1-3)[Gal(b1-4)GlcNAc(b1-3)Gal(b1-4)GlcNAc(b1-3)Gal(b1-4)GlcNAc(b1-3)Gal(b1-4)GlcNAc(b1-2)Man(a1-6)]Man(b1-4)GlcNAc(b1-4)[Fuc(a1-6)]GlcNAc
# Outline: as §1
# [9] = target: Gal(b1-4)GlcNAc(b1-3)Gal(b1-4)GlcNAc(b1-3)Gal(b1-4)GlcNAc(b1-3)Gal(b1-4)GlcNAc(b1-2)[Gal(b1-4)GlcNAc(b1-3)Gal(b1-4)GlcNAc(b1-3)Gal(b1-4)GlcNAc(b1-3)Gal(b1-4)GlcNAc(b1-6)]Man(a1-6)[Gal(b1-4)GlcNAc(b1-3)Gal(b1-4)GlcNAc(b1-3)Gal(b1-4)GlcNAc(b1-3)Gal(b1-4)GlcNAc(b1-2)Man(a1-3)]Man(b1-4)GlcNAc(b1-4)[Fuc(a1-6)]GlcNAc
# Outline: as §1
# [10] = target: Gal(b1-4)GlcNAc(b1-3)Gal(b1-4)GlcNAc(b1-3)Gal(b1-4)GlcNAc(b1-3)Gal(b1-4)GlcNAc(b1-3)Gal(b1-4)GlcNAc(b1-2)Man(a1-3)[Gal(b1-4)GlcNAc(b1-3)Gal(b1-4)GlcNAc(b1-3)Gal(b1-4)GlcNAc(b1-3)Gal(b1-4)GlcNAc(b1-3)Gal(b1-4)GlcNAc(b1-2)Man(a1-6)]Man(b1-4)GlcNAc(b1-4)GlcNAc
# Outline: as §1
# [11] = target: Gal(b1-4)GlcNAc(b1-3)Gal(b1-4)GlcNAc(b1-3)Gal(b1-4)GlcNAc(b1-3)Gal(b1-4)GlcNAc(b1-3)Gal(b1-4)GlcNAc(b1-2)Man(a1-3)[Gal(b1-4)GlcNAc(b1-3)Gal(b1-4)GlcNAc(b1-3)Gal(b1-4)GlcNAc(b1-3)Gal(b1-4)GlcNAc(b1-3)Gal(b1-4)GlcNAc(b1-2)Man(a1-6)]Man(b1-4)GlcNAc(b1-4)[Fuc(a1-6)]GlcNAc
# Outline: as §1
# [12] = target: Gal(b1-4)GlcNAc(b1-3)Gal(b1-4)GlcNAc(b1-3)Gal(b1-4)GlcNAc(b1-3)Gal(b1-4)GlcNAc(b1-3)Gal(b1-4)GlcNAc(b1-2)[Gal(b1-4)GlcNAc(b1-3)Gal(b1-4)GlcNAc(b1-3)Gal(b1-4)GlcNAc(b1-3)Gal(b1-4)GlcNAc(b1-3)Gal(b1-4)GlcNAc(b1-6)]Man(a1-6)[Gal(b1-4)GlcNAc(b1-3)Gal(b1-4)GlcNAc(b1-3)Gal(b1-4)GlcNAc(b1-3)Gal(b1-4)GlcNAc(b1-3)Gal(b1-4)GlcNAc(b1-2)Man(a1-3)]Man(b1-4)GlcNAc(b1-4)[Fuc(a1-6)]GlcNAc
# Outline: as §1
# [13] = target: Gal(b1-4)GlcNAc(b1-3)Gal(b1-4)GlcNAc(b1-3)Gal(b1-4)GlcNAc(b1-3)Gal(b1-4)GlcNAc(b1-3)Gal(b1-4)GlcNAc(b1-3)Gal(b1-4)GlcNAc(b1-2)Man(a1-3)[Gal(b1-4)GlcNAc(b1-3)Gal(b1-4)GlcNAc(b1-3)Gal(b1-4)GlcNAc(b1-3)Gal(b1-4)GlcNAc(b1-3)Gal(b1-4)GlcNAc(b1-3)Gal(b1-4)GlcNAc(b1-2)Man(a1-6)]Man(b1-4)GlcNAc(b1-4)GlcNAc
# Outline: as §1
# [14] = target: Gal(b1-4)GlcNAc(b1-3)Gal(b1-4)GlcNAc(b1-3)GalNAc
# Outline: as §1
# [15] = target: Gal(b1-4)GlcNAc(b1-3)Gal(b1-4)GlcNAc(b1-3)[Gal(b1-4)GlcNAc(b1-3)Gal(b1-4)GlcNAc(b1-6)]GalNAc
# Outline: as §1
# [16] = target: Gal(b1-4)GlcNAc(b1-3)Gal(b1-4)GlcNAc(b1-6)[Gal(b1-3)]GalNAc
# Outline: as §1
# [17] = target: Gal(b1-4)GlcNAc(b1-3)Gal(b1-4)[Fuc(a1-3)]GlcNAc(b1-3)Gal(b1-4)[Fuc(a1-3)]GlcNAc
# Outline: as §1
# [18] = target: Gal(b1-4)GlcNAc(b1-3)GalNAc
# Outline: as §1
# [19] = target: Gal(b1-4)GlcNAc(b1-3)[Fuc(a1-3)GlcNAc(b1-6)]Gal(b1-4)Glc
# Outline: as §1
# [20] = target: Gal(b1-4)GlcNAc(b1-3)[Gal(b1-4)GlcNAc(b1-6)]Gal(b1-4)GlcNAc
# Outline: as §1
# [21] = target: Gal(b1-4)GlcNAc(b1-3)[GlcNAc(b1-6)]Gal(b1-4)GlcNAc
# Outline: as §1
# [22] = target: Gal(b1-4)GlcNAc(b1-6)Gal(b1-4)GlcNAc
# Outline: as §1
# [23] = target: Gal(b1-4)GlcNAc(b1-6)GalNAc
# Outline: as §1
# [24] = target: Gal(b1-4)GlcNAc(b1-6)[Gal(b1-3)]GalNAc
# Outline: as §1
# [25] = target: Gal(b1-4)GlcNAc(b1-6)[Gal(b1-4)GlcNAc(b1-3)]GalNAc
# Outline: as §1
# [26] = target: Gal(b1-4)GlcNAc6P
# Outline: as §1
# [27] = target: Gal(b1-6)Gal
# Outline: as §1
# [28] = target: Gal3S(b1-3)GalNAc
# Outline: as §1
# [29] = target: Gal3S(b1-3)GlcNAc
# Outline: as §1
# [30] = target: Gal3S(b1-3)[Fuc(a1-4)]GlcNAc
# Outline: as §1
# [31] = target: Gal3S(b1-4)Glc
# Outline: as §1
# [32] = target: Gal3S(b1-4)Glc6S
# Outline: as §1
# [33] = target: Gal3S(b1-4)GlcNAc
# Outline: as §1
# [34] = target: Gal3S(b1-4)[Fuc(a1-3)]Glc6S
# Outline: as §1
# [35] = target: Gal3S(b1-4)[Fuc(a1-3)]GlcNAc
# Outline: as §1
# [36] = target: Gal3S(b1-4)[Fuc(a1-3)]GlcNAc6S
# Outline: as §1
# [37] = target: Gal3S4S(b1-4)GlcNAc
# Outline: as §1
binder,measurement,setting,value
B1,glycan array binding signal (z-score),[1],1.25
same,glycan array binding signal (z-score),[2],-0.228
same,glycan array binding signal (z-score),[3],-0.79
same,glycan array binding signal (z-score),[4],0.203
same,glycan array binding signal (z-score),[5],0.054
same,glycan array binding signal (z-score),[6],2.08
same,glycan array binding signal (z-score),[7],0.686
same,glycan array binding signal (z-score),[8],3.44
same,glycan array binding signal (z-score),[9],0.582
same,glycan array binding signal (z-score),[10],4.07
same,glycan array binding signal (z-score),[11],0.752
same,glycan array binding signal (z-score),[12],2.31
same,glycan array binding signal (z-score),[13],2.1
same,glycan array binding signal (z-score),[14],0.73
same,glycan array binding signal (z-score),[15],0.144
same,glycan array binding signal (z-score),[16],-0.433
same,glycan array binding signal (z-score),[17],-0.754
same,glycan array binding signal (z-score),[18],-0.396
same,glycan array binding signal (z-score),[19],-0.786
same,glycan array binding signal (z-score),[20],0.17
same,glycan array binding signal (z-score),[21],-0.386
same,glycan array binding signal (z-score),[22],-0.312
same,glycan array binding signal (z-score),[23],0.283
same,glycan array binding signal (z-score),[24],-0.935
same,glycan array binding signal (z-score),[25],0.403
same,glycan array binding signal (z-score),[26],0.309
same,glycan array binding signal (z-score),[27],-2.14
same,glycan array binding signal (z-score),[28],-0.262
same,glycan array binding signal (z-score),[29],-0.89
same,glycan array binding signal (z-score),[30],-0.149
same,glycan array binding signal (z-score),[31],-1.78
same,glycan array binding signal (z-score),[32],-0.469
same,glycan array binding signal (z-score),[33],-0.467
same,glycan array binding signal (z-score),[34],2.17
same,glycan array binding signal (z-score),[35],0.519
same,glycan array binding signal (z-score),[36],0.382
same,glycan array binding signal (z-score),[37],-1.57

# Pulled one by one from the list above, two records:
binder,measurement,setting,value
B1,glycan array binding signal (z-score),[14],0.73
same,glycan array binding signal (z-score),[28],-0.262
